Assay results: the supplement of paper PMC10735217
Counter-ions that a name gives are not always drawn. The list shows a part of the results. This data set is noisy: repeats of one test often differ as much as different tests do.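 In a drug-repurposing library screen, luminescence reads luciferase driven by eight TEAD-binding elements, stably integrated into human kidney-derived cells. Compounds scoring over five robust Z scores above the plate mean are called hits.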

Tested on: HEK293A TEAD-LUC reporter
Experiment: TEAD-luciferase reporter activity (YAP activation), robust Z score vs plate; higher = stronger YAP/TEAD activation
Conditions: 24 h

Row | SMILES | TEAD-luciferase reporter activity (compound concentration: 200 nM) | TEAD-luciferase reporter activity (compound concentration: 2 uM) | TEAD-luciferase reporter activity (compound concentration: 10 uM)
1 | COP(=O)(OC)N1C[C@H]2C[C@H](C1)c1cccc(=O)n1C2 [Cytisin amidophosphate] | inactive: -1.41 | inactive: -0.182 | inactive: 0.291
2 | CNCC/C=C/c1cncnc1 | inactive: -0.649 | inactive: -0.674 | inactive: 0.112
3 | CC(=O)O[C@H]1CCC2C3CCC4=CC(=O)CC[C@]4(C)C3CC[C@@]21C (stereo partly specified) [Testosterone, Acetate derivative] | inactive: 0.253 | inactive: -1.63 | inactive: 1.03
4 | Cc1ccc(C(=O)N2CCCC2C(=O)N2CCC(N3CCCC3=O)CC2)cc1 (stereo unspecified) | inactive: -0.00389 |  | inactive: 3
5 | COc1cc2c(cc1F)C(c1ccccc1Cl)=NC1=C(C)NNC1=N2 | inactive: -1.36 | inactive: -1.13 | inactive: 0.247
6 | CCN1CCC2(CC1)COc1cc3c(cc12)N(C(=O)c1ccc(-c2ccc(-c4nnc(C)o4)cc2C)cc1)CC3 | inactive: -0.506 | inactive: 0.848 | inactive: 2.8
7 | CN1[C@@H]2CC(OC(=O)C(O)(CO)c3ccccc3)C[C@H]1[C@@H]1O[C@H]12 (stereo partly specified) | inactive: 1.93 | inactive: -1.06 | inactive: 0.225
8 | CC(O)C(C)OC(=O)[C@@H]1C[C@@H]2c3cccc4c3c(cn4C(C)C)C[C@H]2N(C)C1 (stereo partly specified) | inactive: 0.381 | inactive: -1.03 | inactive: 1.68
9 | COC1=C(OC)C(=O)/C(=C2/C(C)=C(C(=O)O)NC(c3ccc4c(n3)C(=O)C(N)=C(OC)C4=O)=C2N)C=C1 [Streptonigrin from Streptomyces flocculus] | inactive: -1.36 |  | inactive: -2.84
10 | COC1=C(OC)C(=O)/C(=C2/C(C)=C(C(=O)O)NC(c3ccc4c(n3)C(=O)C(N)=C(OC)C4=O)=C2N)C=C1 [Streptonigrin from streptomyces flocculus] |  | inactive: -1.92 | 
11 | O=C1CN=C(C2=CCCCC2)c2cc(Cl)ccc2N1 | inactive: -1.03 | inactive: -1.3 | inactive: 0.837
12 | C[N+]1(C)[C@@H]2CC[C@H]1C[C@@H](CC(C#N)(c1ccccc1)c1ccccc1)C2 | inactive: 0.452 | inactive: -0.253 | inactive: 0.712
13 | N#Cc1c(Oc2cccc(OS(=O)(=O)CCCC(F)(F)F)c2)cccc1C(F)(F)F | inactive: 1.46 | inactive: 2.12 | inactive: -0.781
14 | N#CC(CCN1CCC(C(N)=O)(N2CCCCC2)CC1)(c1ccccc1)c1ccccc1 | inactive: -0.556 | inactive: 0.338 | inactive: -0.693
15 | CN(C)CCNc1nc2cc(O)ccc2c2c1C(=O)c1ccccc1-2 | inactive: -0.897 | inactive: -0.0883 | inactive: 1.24
16 | NCCc1ccc2c(c1)OCO2 | inactive: 0.41 | inactive: 0.466 | inactive: 1.14
17 | Cc1ccc2c(c1)N1CCN(C)CC1c1ccccc1O2 (stereo unspecified) | inactive: -1.38 | inactive: -1.08 | inactive: 2.49
18 | Oc1cc(Cl)ccc1Oc1ccc(Cl)cc1Cl [Triclosan3380-34-5] | inactive: -2.85 |  | inactive: 0.0128
19 | Oc1cc(Cl)ccc1Oc1ccc(Cl)cc1Cl [Triclosan] |  | inactive: -1.25 | 
20 | CCn1cc(C(=O)O)c(=O)c2cc3c(cc21)OCO3 | inactive: -0.624 | inactive: -1.21 | active: 5.76
21 | O=C(C[C@@H]1NCCC[C@H]1O)Cn1cnc2cc(Br)c(Cl)cc2c1=O [halofugi] |  | inactive: -2.22 | 
22 | O=C(C[C@@H]1NCCC[C@H]1O)Cn1cnc2cc(Br)c(Cl)cc2c1=O [halofugi, Hadasit] | inactive: 0.806 |  | 
23 | O=C(C[C@@H]1NCCC[C@H]1O)Cn1cnc2cc(Br)c(Cl)cc2c1=O [halofugi  , Hadasit] |  |  | inactive: -0.847
24 | CCCCCCCCCCCCCCCCS(=O)(=O)N1CCc2c(sc3c2C(c2ccccc2Cl)=NCc2nnc(C)n2-3)C1 | inactive: 0.513 | inactive: -1.73 | inactive: -1.28
25 | CNC(=O)N(C)N=O [Dimethynur] | inactive: 0.855 | inactive: 0.0257 | inactive: -0.451
26 | COc1ccc(C(OCCN2CCN(CCCC(=O)c3ccc(F)cc3)CC2)c2ccccc2)cc1 (stereo unspecified) [mobenzoxamine] | inactive: 2.8 | inactive: 0.147 | inactive: 3.17
27 | C=CCN1CC[C@]23c4c5ccc(O)c4O[C@H]2C(=O)CCC3(O)C1C5 (stereo partly specified) [Naloxon] | inactive: 0.968 | inactive: -1.1 | inactive: 0.831
28 | COc1ccc2c(c1O)CNCC2c1ccc(O)c(O)c1 (stereo unspecified) | inactive: -0.829 | inactive: -1.16 | inactive: 2.57

Row | SMILES | TEAD-luciferase reporter activity (compound concentration: 200 nM) | TEAD-luciferase reporter activity (compound concentration: 2 uM) | TEAD-luciferase reporter activity (compound concentration: 10 uM)
29 | CN1C(=O)C(O)N=C(c2ccccc2)c2cc(Cl)ccc21 (stereo unspecified) [Temazepam] | inactive: -0.686 |  | inactive: -1.12
30 | Cc1ccc(C(=O)N2CCCC2C(=O)N2CCC(N3CCOCC3=O)CC2)cc1 (stereo unspecified) | inactive: -2.08 |  | inactive: -0.25
31 | C=CCN(C1=NCCN1)c1c(Cl)ccc2nsnc12 | inactive: -1.88 | inactive: -1.07 | inactive: 0.428
32 | Fc1cccc(F)c1C1SCc2nc3ccccc3n21 (stereo unspecified) | inactive: -1.02 | inactive: -0.743 | inactive: 0.0336
33 | c1cncc(C2CCC3CCN2CC3)c1 (stereo unspecified) | active: 7.16 | inactive: 4.09 | inactive: 0.37
34 | O=C(c1ccc(Cl)o1)N1CC2CNCC2C1 (stereo unspecified) | inactive: -1.57 | inactive: 2.24 | inactive: 0.962
35 | CCC1(c2ccccc2)C(=O)NC(=O)N(C)C1=O (stereo unspecified) [Methylphenobarbital] | inactive: -1.87 | inactive: -1.91 | active: 6.66
36 | CCN(CC)C(=O)N[C@H]1CC2c3cccc4[nH]cc(c34)CC2N(C)C1 (stereo partly specified) [Terguride] | inactive: -1.89 | inactive: -0.6 | inactive: 3.34
37 | CN(N=O)C(=O)N[C@@H]1OC(CO)[C@@H](O)C(O)C1O (stereo partly specified) | inactive: -0.192 | inactive: -0.658 | inactive: -1.24
38 | COC(=O)Nc1nc2ccccc2[nH]1 [carbendazim] | inactive: 1.95 | inactive: -1.94 | inactive: -1.45
39 | Cc1cccc([C@H](C)c2c[nH]c(=S)[nH]2)c1C | inactive: -0.172 | inactive: -1.57 | inactive: 0.229
40 | CNCc1nnc2n1-c1ccc(Cl)cc1C(c1ccccc1)=NC2 [N-Desmethyladinazolam] | inactive: -2.4 | inactive: -0.226 | active: 7.19
41 | Cc1cccc(NC(=O)N[C@@H]2N=C(c3ccccc3)c3ccccc3N(CC(=O)c3ccccc3C)C2=O)c1 | inactive: -1.32 | inactive: -1.4 | inactive: -0.347
42 | C#C[C@]1(OC(C)=O)CCC2C3CC[C@H]4CC(OC(C)=O)CCC4(C)C3CCC21C (stereo partly specified) | inactive: -0.434 | inactive: -1.29 | inactive: -0.435
43 | C=C/C=C/CC1=C(C)C(OC(=O)[C@@H]2C(/C=C(\C)C(=O)OC)C2(C)C)CC1=O.C=C/C=C/CC1=C(C)[C@@H](OC(=O)[C@@H]2C(C=C(C)C)C2(C)C)CC1=O (stereo partly specified) | inactive: 0.0212 | inactive: -0.314 | inactive: -0.635
44 | CC1O[C@H](O[C@H]2C[C@@H](O)[C@]3(CO)C4C(O)C[C@]5(C)[C@@H](C6=CC(=O)OC6)CC[C@]5(O)[C@@H]4CC[C@]3(O)C2)C(O)C(O)[C@@H]1O (stereo partly specified) [G-Strophanthin] | active: 19.3 | inactive: -3.72 | active: 17.5
45 | CN1C[C@H](C(=O)N[C@]2(C)O[C@@]3(O)[C@@H]4CCCN4C(=O)[C@H](Cc4ccccc4)N3C2=O)CC2c3cccc4[nH]cc(c34)C[C@H]21 (stereo partly specified) | inactive: -0.486 | inactive: -1.36 | inactive: 2.46
46 | CC(C)(C)c1ccc(O)cc1 | inactive: -0.699 | inactive: -0.938 | inactive: -0.41
47 | O=S(=O)(Oc1ccc(Cl)cc1)c1ccc(Cl)cc1 [Miticide K 101] | inactive: 0.664 | inactive: 1.3 | inactive: -1.58
48 | O=C(CC1c2ccccc2C(=O)N1c1ccc2ccc(Cl)nc2n1)N1CCC2(CC1)OCCO2 (stereo unspecified) | inactive: -0.857 | inactive: 0.469 | inactive: 0.34
49 | C[C@H]1[C@H](O)[C@@H](C)/C=C/C=C/CC/C=C/C=C/C=C/C=C/[C@H](O[C@@H]2O[C@H](C)[C@@H](O)[C@H](N)[C@@H]2O)C[C@@H]2O[C@](O)(C[C@@H](O)[C@H](O)CC[C@@H](O)C[C@@H](O)C[C@@H](O)CC(=O)O[C@H]1C)C[C@H](O)[C@H]2C(=O)O [Nystatin] | inactive: -0.289 | inactive: 0.0862 | inactive: 0.197
50 | NC(=O)c1ncn2c1CN=C(c1ccccc1Br)c1cc(F)ccc1-2 [Imidazenil] | inactive: -1.72 | inactive: -1.31 | inactive: 0.0311
51 | CC(c1ccccc1)C(C)(C)N (stereo unspecified) | inactive: -0.697 |  | inactive: 3.63
52 | CCCCCOc1c(OC)ccc2cc(C(=O)NCc3ccc4c(c3)OCO4)c(O)nc12 | inactive: 2.09 | inactive: -1.62 | active: 6.06
53 | Oc1ccc2c(c1)[C@@]13CCCC[C@H]1[C@@H](C2)N(CC1CCC1)CC3 | inactive: -2.58 | inactive: -1.07 | inactive: -1.32
54 | Cc1ccc(-c2nc3ccc(C)cn3c2CC(=O)N(C)C)cc1 [zolpidem tartrate MR] |  | inactive: -1.06 | 
55 | Cc1ccc(-c2nc3ccc(C)cn3c2CC(=O)N(C)C)cc1 | inactive: 0.92 |  | inactive: 1.84

As entered above.
TEAD-luciferase reporter activity (compound concentration: 10 uM), CCC1(c2ccccc2)C(=O)NC(=O)N(C)C1=O (stereo unspecified) [Methylphenobarbital] is entered as active: 6.66
TEAD-luciferase reporter activity (compound concentration: 200 nM), Cc1cccc(NC(=O)N[C@@H]2N=C(c3ccccc3)c3ccccc3N(CC(=O)c3ccccc3C)C2=O)c1 is entered as inactive: -1.32
TEAD-luciferase reporter activity (compound concentration: 10 uM), c1cncc(C2CCC3CCN2CC3)c1 (stereo unspecified) is entered as inactive: 0.37
TEAD-luciferase reporter activity (compound concentration: 10 uM), CCCCCCCCCCCCCCCCS(=O)(=O)N1CCc2c(sc3c2C(c2ccccc2Cl)=NCc2nnc(C)n2-3)C1 is entered as inactive: -1.28
